Among the data in PMC8411571 are binding values, retold here.

In this assay the target is T1, GST-Usp (Drosophila) (UniProt P20153).
T1 sequence: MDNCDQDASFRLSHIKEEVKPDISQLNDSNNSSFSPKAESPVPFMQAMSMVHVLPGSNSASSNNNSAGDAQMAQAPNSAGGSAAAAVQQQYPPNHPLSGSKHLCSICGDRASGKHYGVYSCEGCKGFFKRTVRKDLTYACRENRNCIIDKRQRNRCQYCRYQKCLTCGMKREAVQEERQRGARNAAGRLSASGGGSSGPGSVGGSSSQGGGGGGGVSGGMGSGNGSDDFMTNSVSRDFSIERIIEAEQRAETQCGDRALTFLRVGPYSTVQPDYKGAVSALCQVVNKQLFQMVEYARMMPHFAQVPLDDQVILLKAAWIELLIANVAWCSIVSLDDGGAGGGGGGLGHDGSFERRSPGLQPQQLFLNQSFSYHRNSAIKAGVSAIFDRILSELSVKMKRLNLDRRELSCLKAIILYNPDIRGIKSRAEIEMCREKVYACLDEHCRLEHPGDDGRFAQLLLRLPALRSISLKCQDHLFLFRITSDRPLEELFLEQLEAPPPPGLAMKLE
Kind of assay: pull-down; GST-tagged bait and His-tagged prey, each from the bacterial soluble protein fraction, mixed in Buffer A (20 mM Tris, 1 mM MgCl2, 150 mM NaCl, 0.1% NP-40, 10% glycerol, pH 8.0) 1.5 h at 4°C, then Glutathione Sepharose 4B 1.5 h at 4°C; prey detected by anti-EcR or anti-Jun immunoblot; with or without added 20E.

No constants are given. Whether binding was seen depends on the method and setting. In cells and extracts the contact can be indirect. Some entries that bind do so weakly or less than the wild type. Sequences can lack the tags named with a protein.

B1: His-Jun (protein, UniProt P18289 1-289)
chain: MKTPVSAAANLSIQNAGSSGATAIQIIPKTEPVGEEGPMSLDFQSPNLNTSTPNPNKRPGSLDLNSKSAKNKRIFAPLVINSPDLSSKTVNTPDLEKILLSNNLMQTPQPGKVFPTKAGPVTVEQLDFGRGFEEALHNLHTNSQAFPSANSAANSAANNTTAAAMTAVNNGISGGTFTYTNMTEGFSVIKDEPVNQASSPTVNPIDMEAQEKIKLERKRQRNRVAASKCRKRKLERISKLEDRVKVLKGENVDLASIVKNLKDHVAQLKQQVMEHIAAGCTVPPNSTDQ
Consider B1, for which the binding result is given as “binds”.
